Construct, isoform or probe ends are uncertain for at least one entry. For part of these data: A negative result means that nothing was seen under these conditions. Protein sequences can lack the tags named with them.
What was measured:
[1] = target: T1, CcpA (Bacillus licheniformis) (UniProt Q65G28); test: EMSA; settings: 10 nM biotin probe, 10 mM Tris-HCl pH 7.4, 1 mM DTT, 1 mM EDTA, 50 mM KCl, 1 mM MgCl2, 0.05 ug/uL poly(dI-dC), 25 C, 20 min, 4% acrylamide, 0.5x TBE, recombinant protein, protein details: His-tag, label: biotin
T1 sequence (looked up, limits assumed): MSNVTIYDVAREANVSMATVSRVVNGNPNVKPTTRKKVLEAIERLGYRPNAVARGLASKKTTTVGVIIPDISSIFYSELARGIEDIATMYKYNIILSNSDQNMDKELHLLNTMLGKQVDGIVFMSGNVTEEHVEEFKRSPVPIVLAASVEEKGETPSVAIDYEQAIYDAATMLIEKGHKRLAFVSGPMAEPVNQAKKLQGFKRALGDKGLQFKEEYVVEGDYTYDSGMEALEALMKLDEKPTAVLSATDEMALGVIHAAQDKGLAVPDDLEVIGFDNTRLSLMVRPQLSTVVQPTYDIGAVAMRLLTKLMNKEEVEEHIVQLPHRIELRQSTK

[2] = target: T2, MtlR (Bacillus licheniformis) (UniProt Q62YQ4); test: EMSA; settings: 0.5, 1.0 uM MtlR; 10 nM biotin probe, 10 mM Tris-HCl pH 7.4, 1 mM DTT, 1 mM EDTA, 50 mM KCl, 1 mM MgCl2, 0.05 ug/uL poly(dI-dC), 25 C, 20 min; 4% acrylamide, 0.5x TBE; recombinant protein; protein details: His-tag; label: biotin
T2 sequence (looked up, limits assumed): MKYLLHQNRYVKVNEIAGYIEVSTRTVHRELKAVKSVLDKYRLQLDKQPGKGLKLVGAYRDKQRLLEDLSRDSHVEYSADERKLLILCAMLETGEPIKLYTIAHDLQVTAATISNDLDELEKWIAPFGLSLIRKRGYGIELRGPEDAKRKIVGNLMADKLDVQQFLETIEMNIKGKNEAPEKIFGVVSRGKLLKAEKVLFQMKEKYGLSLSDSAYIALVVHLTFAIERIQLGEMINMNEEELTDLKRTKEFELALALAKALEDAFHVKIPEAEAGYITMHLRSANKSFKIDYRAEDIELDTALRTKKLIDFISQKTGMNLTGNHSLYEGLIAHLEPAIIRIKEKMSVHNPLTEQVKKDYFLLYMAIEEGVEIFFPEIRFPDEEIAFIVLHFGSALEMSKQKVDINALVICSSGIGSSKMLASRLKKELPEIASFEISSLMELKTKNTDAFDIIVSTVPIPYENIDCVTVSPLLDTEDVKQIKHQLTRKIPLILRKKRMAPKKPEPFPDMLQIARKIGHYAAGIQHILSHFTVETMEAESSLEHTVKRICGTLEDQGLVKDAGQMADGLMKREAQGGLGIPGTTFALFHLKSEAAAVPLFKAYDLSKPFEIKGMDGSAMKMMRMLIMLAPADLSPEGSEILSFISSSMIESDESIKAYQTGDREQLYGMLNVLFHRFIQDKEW

Row | Sequence | binding result ([1]; 1.2, 1.6 uM CcpA) | binding result [1] | binding result [2]
1 | TCCCCGTCAGATGGCCGGGAGCCGGATGAACCACCATTCCGCGCGGCTTGTTGACGACAAGAACGTCCTGATCTTATTATAATATAAGCAAAAAACTCTTGTCATCCTGCCAAATAAAAAGGAAAAGCATTGACCTGAAAAAAGCTATAGCTTTTATAATACAAAAAGACCGATTAGAGGGGAGAGAGGAAACATGCCTTCAGTTGAAAGTTTTGAACTTGACCATAATGCAGTAAAAGCGCCTTACGTCAGACACTGCGGCGTCCATAAAGTGGGATCCCTCGAGCGG (double strand) [A-4e (MtlR box 4, cre3)] | binds |  | 
2 | TCCCCGTCAGATGGCCGGGAGCCGGATGAACCACCATTCCGCGCGGCTTGTTGACGACAAGAACGTCCTGATCTTATTATAATATAAGCAAAAAACTCTTGTCATCCTGCCAAATAAAAAGGAAAAGCATTGACCTGAAAACTTATCGGTAAAGTATGATATAATACAAAAAGACCGATTAGAGGGGAGAGAGGAAACATGCCTTCAGTTGAAAGTTTTGAACTTGACCATAATGCAGTAAAAGCGCCTTACGTCAGACACTGCGGCGTCCATAAAGTGGGATCCCTCGAGCGG (double strand) [A-4 (MtlR box 4)] |  | no binding | binds
3 | TCCCCGTCAGATGGCCGGGAGCCGGATGAACCACCATTCCGCGCGGCTTGTTGACGACAAGAACGTCCTGATCTTATTATAATATAAGCAAAAAACTCTTGTCATCCTGCCAAATAAAAAGGAAAAGCATTGACCTGAAAAGCTTTATAAAGCTTATAATACAAAAAGACCGATTAGAGGGGAGAGAGGAAACATGCCTTCAGTTGAAAGTTTTGAACTTGACCATAATGCAGTAAAAGCGCCTTACGTCAGACACTGCGGCGTCCATAAAGTGGGATCCCTCGAGCGG (double strand) [A-4c (MtlR box 4, cre2)] | binds |  | 
4 | TCCCCGTCAGATGGCCGGGAGCCGGATGAACCACCATTCCGCGCGGCTTGTTGACGACAAGAACGTCCTGATCTTATTATAATATAAGCAAAAAACTCTTGTCATCCTGCCAAATAAAAAGGAAAAGCATTGACCTGAAATGACAGCGCTGTCATATAATACAAAAAGACCGATTAGAGGGGAGAGAGGAAACATGCCTTCAGTTGAAAGTTTTGAACTTGACCATAATGCAGTAAAAGCGCCTTACGTCAGACACTGCGGCGTCCATAAAGTGGGATCCCTCGAGCGG (double strand) [A-4a (MtlR box 4, cre1)] | binds |  | 
5 | TCCCCGTCAGATGGCCGGGAGCCGGATGAACCACCATTCCGCGCGGCTTGTTGACGACAAGAACGTCCTGATCTTATTATAATATAAGCAAAAAACTCTTGTCATCCTGCCAAATAAAAAGGAAAGCTATAGCTTTAAAAGCATTGACCTGAAAACTTATCGGTAAAGTATGATATAATACAAAAAGACCGATTAGAGGGGAGAGAGGAAACATGCCTTCAGTTGAAAGTTTTGAACTTGACCATAATGCAGTAAAAGCGCCTTACGTCAGACACTGCGGCGTCCATAAAGTGGGATCCCTCGAGCGG (double strand) [A-4f (MtlR box 4, cre3)] | binds |  | 
6 | TCCCCGTCAGATGGCCGGGAGCCGGATGAACCACCATTCCGCGCGGCTTGTTGACGACAAGAACGTCCTGATCTTATTATAATATAAGCAAAAAACTCTTGTCATCCTGCCAAATAAAAAGGAGCTTTATAAAGCTAAAAGCATTGACCTGAAAACTTATCGGTAAAGTATGATATAATACAAAAAGACCGATTAGAGGGGAGAGAGGAAACATGCCTTCAGTTGAAAGTTTTGAACTTGACCATAATGCAGTAAAAGCGCCTTACGTCAGACACTGCGGCGTCCATAAAGTGGGATCCCTCGAGCGG (double strand) [A-4d (MtlR box 4, cre2)] | binds |  | 
7 | TCCCCGTCAGATGGCCGGGAGCCGGATGAACCACCATTCCGCGCGGCTTGTTGACGACAAGAACGTCCTGATCTTATTATAATATAAGCAAAAAACTCTTGTCATCCTGCCAAATAAAAAGGTGACAGCGCTGTCAAAAAGCATTGACCTGAAAACTTATCGGTAAAGTATGATATAATACAAAAAGACCGATTAGAGGGGAGAGAGGAAACATGCCTTCAGTTGAAAGTTTTGAACTTGACCATAATGCAGTAAAAGCGCCTTACGTCAGACACTGCGGCGTCCATAAAGTGGGATCCCTCGAGCGG (double strand) [A-4b (MtlR box 4, cre1)] | binds |  | 
8 | TCCCCGTCAGATGGCCGGGAGCCGGATGAACCACCATTCCGCGCGGCTTGTTGACGACAAGAACGTCCTGATCTTATTATAATATAAGCAAAAAACTCTTGTCATGCCAAATAAAAAGGAAAAGCATTGACCTGAAAACTTATCGGTAAAGTATGATATAATACAAAAAGACCGATTAGAGGGGAGAGAGGAAACATGCCTTCAGTTGAAAGTTTTGAACTTGACCATAATGCAGTAAAAGCGCCTTACGTCAGACACTGCGGCGTCCATAAAGTGGGATCCCTCGAGCGG (double strand) [A-3 (MtlR box 3)] |  |  | binds

From paper PMC10992428
